Results taken from paper doi:10.1101/258285.
Read-outs that look alike come from different tables or passages of the source. These are yes or no findings as the source states them, for the method shown. In cells and extracts the contact can be indirect. Some results given as binding are weak or reduced against the parent protein; the word gives no strength. For part of these data: Tags and fused reporters may be left off the sequences shown.

The chains behind the UniProt entries cited, without tags or fusion partners. Where a name states a change or a piece, a line headed by the entry shows the natural chain unless it says otherwise.
UniProt P09429: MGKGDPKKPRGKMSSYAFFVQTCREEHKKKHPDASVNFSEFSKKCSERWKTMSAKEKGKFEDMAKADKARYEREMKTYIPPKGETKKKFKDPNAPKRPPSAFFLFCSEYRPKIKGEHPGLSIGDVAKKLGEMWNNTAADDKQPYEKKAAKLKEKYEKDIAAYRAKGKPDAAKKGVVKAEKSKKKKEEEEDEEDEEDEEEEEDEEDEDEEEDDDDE
UniProt P63158: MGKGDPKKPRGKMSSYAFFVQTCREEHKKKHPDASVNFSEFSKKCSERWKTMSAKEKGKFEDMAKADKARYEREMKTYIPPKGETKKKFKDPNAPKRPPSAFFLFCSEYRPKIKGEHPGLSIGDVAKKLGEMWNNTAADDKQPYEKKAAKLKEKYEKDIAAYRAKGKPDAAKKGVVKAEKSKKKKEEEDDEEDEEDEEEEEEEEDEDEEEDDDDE
UniProt O14980: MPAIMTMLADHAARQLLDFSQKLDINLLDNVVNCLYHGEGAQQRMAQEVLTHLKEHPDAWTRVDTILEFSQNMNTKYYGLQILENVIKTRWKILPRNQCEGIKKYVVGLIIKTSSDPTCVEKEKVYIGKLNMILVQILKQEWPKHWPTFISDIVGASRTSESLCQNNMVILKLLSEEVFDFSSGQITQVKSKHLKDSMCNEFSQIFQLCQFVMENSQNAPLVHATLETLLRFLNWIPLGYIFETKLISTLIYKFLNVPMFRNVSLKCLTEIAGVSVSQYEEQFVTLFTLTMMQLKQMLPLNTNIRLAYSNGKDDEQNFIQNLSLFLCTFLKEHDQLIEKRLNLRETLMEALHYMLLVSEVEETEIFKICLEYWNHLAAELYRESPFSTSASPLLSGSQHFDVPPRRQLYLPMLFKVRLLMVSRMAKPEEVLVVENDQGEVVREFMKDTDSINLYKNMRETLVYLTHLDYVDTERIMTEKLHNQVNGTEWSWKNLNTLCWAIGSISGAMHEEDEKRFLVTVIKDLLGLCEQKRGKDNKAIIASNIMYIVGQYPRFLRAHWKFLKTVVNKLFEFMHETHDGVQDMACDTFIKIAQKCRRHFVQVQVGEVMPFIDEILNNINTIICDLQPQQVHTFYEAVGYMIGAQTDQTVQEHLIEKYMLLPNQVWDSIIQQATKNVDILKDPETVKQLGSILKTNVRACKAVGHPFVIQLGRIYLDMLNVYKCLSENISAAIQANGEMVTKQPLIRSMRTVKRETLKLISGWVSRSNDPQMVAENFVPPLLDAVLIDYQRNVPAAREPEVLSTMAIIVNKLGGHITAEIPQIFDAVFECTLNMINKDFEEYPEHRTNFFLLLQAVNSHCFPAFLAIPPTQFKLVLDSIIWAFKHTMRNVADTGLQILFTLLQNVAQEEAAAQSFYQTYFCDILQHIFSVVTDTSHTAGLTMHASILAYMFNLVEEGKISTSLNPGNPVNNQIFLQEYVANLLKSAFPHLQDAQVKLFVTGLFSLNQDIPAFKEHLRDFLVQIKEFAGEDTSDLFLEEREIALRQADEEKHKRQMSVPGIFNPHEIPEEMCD

What was measured:
[1] = biological target: T1, Myc- and His6-tagged human PrxI (human) (UniProt Q06830); assay: co-IP
T1 sequence: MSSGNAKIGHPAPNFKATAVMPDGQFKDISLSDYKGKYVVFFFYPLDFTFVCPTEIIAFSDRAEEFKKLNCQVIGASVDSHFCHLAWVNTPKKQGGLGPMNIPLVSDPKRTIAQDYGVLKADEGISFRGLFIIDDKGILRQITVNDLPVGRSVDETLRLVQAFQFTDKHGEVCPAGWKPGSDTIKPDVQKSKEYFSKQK

[2] = biological target: T2, Myc- and His6-tagged human PrxII (human) (UniProt P32119); assay: co-IP
T2 sequence: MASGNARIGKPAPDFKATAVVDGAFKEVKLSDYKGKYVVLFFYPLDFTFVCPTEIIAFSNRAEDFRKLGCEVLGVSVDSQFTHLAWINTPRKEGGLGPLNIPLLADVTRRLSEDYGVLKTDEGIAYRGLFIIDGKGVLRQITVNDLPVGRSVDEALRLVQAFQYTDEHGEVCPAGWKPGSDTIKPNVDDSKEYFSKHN

[3] = biological target: T3, endogenous PrxII of HEK293T cells (human (endogenous in HEK293T)) (UniProt P32119); assay: proximity ligation
T3 sequence: T2 sequence

[4] = biological target: T1, Myc- and His6-tagged human PrxI (human); assay: co-IP; remark: listed apart in the source
[5] = biological target: T2, Myc- and His6-tagged human PrxII (human); assay: co-IP; remark: listed apart in the source
[6] = biological target: T4, endogenous mouse PrxII (mouse (endogenous in MEFs and BMDMs)) (UniProt Q61171); assay: proximity ligation
T4 sequence: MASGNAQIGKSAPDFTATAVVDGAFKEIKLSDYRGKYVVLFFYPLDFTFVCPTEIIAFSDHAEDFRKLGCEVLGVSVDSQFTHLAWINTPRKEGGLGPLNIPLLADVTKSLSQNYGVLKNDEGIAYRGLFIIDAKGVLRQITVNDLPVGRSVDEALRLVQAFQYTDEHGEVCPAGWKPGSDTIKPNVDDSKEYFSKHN

[7] = biological target: Myc epitope–tagged human HMGB1(C23S) (human) (UniProt P09429); assay: proximity ligation
[8] = biological target: Myc epitope–tagged human HMGB1(C45S) (human) (UniProt P09429); assay: proximity ligation
[9] = biological target: Myc epitope–tagged human HMGB1(WT) (human) (UniProt P09429); assay: proximity ligation
[10] = biological target: Myc epitope–tagged human HMGB1(C23S) (human) (UniProt P09429); assay: co-IP
[11] = biological target: Myc epitope–tagged human HMGB1(C45S) (human) (UniProt P09429); assay: co-IP
[12] = biological target: Myc epitope–tagged human HMGB1(WT) (human) (UniProt P09429); assay: co-IP

Measured: binding

Myc epitope–tagged human HMGB1(C45S) (from UniProt P09429 1-215)
binds: [1] | [2] | [3] | [4] | [5]

endogenous HMGB1 of MEFs (from UniProt P63158 1-215)
binds: [6]

endogenous CRM1 of HEK293T cells (from UniProt O14980 1-1071)
binds: [7] | [8] | [9]

CRM1 (chromosome region maintenance protein 1), transfected (from UniProt O14980 1-1071)
binds: [10] | [11] | [12]

Myc epitope–tagged human HMGB1(WT) (from UniProt P09429 1-215)
binds: [3]

Myc epitope–tagged human HMGB1(C23S) (from UniProt P09429 1-215)
binds: [1] | [2] | [3] | [4] | [5]
